For one molecule, binding results are on record in patent publication US20190144538A1 (TETRAGENETICS, published 2019).

Results are given in words; binding and its absence hold for the method and conditions named.

This assay addresses Nav1.8. Description: Nav1.8 ELISA (neg).

B1: 1A3 (Fc fusion, not shown: small tags and cut ends; a dimerising Fc or GST)
scFv (part 1 of 2): LDIQMTQSPSSVTASVGEKVTINCKSSQSVVSASNQKSYLNWYQQRPGQSPRLLIYYASTQELGIPDRFSGSGSTTDFTLTISSVQPEDAAVYYCQQAYSAPYNFGSGTRLEIK
scFv (part 2 of 2): QVQLQESGGGLVQPGGSLRLSCAASGFTFSINGMSWVRQAPGKEVEWVSSINSGGEITNYRDSVKGRFTISRDNVKNTLYLQMNSLKPEDTAFYHCVTGIVAYDYWGQGTQVTVSS
As for B1, the binding entry is “no binding”.
